Experimental data: US11892406B2, “Method and device for assaying the interaction and dynamics of permeation of a molecule and a lipid bilayer” (DUBLIN CITY UNIVERSITY, priority 2018, dated 2024)

Test: Metal enhanced fluorescence permeation assay, DOPC bilayer spanned over gold microcavity array
Format: in vitro ADME
Conditions: bilayer modified array compared to unmodified cavity array
Protocol: Following removal of PS spheres, if in place, washing and aqueous filling of the array a Langmuir monolayer of lipids was spread across the micropore array, using either a Model 102M, LB trough or Model KN2006 from KSV-NIMA technology, LB alternate. The lipid mixture (across single or diverse lipid compositions) was prepared in chloroform at a concentration of 1 mg/ml. 50 μL of this solution was suspended on the water sub-phase. Fifteen minutes were allocated for evaporation of the solvent, prior to lipid monolayer compression. The rate of compression was 30 cm2/min and a constant surface pressure of 32 mN/m was maintained during the transfer of a probe labelled lipid monolayer from the water-air interface to the aqueous filled microcavity array. During LB transfer, the rate of the dipper motion was 5 mm min-1 to ensure adequate transfer. […]
A Horiba Labram HR instrument was used for both Raman and fluorescence measurements using a 50× long distance magnification objective (Leica). The wavelengths were typically 473 nm and 785 nm were used for fluorescence measurements and Raman measurements respectively. […] Typically a 1% neutral density filter and 300 μm slit were used for fluorescence and no filter for Raman. […]
For drug/molecular diffusion studies, drug solutions were prepared as stock solutions for introduction into the bilayer contacting solution dissolved in PBS or Tris buffer at concentrations that permitted final concentrations (on contact with the bilayer buffer) of 1 nM to several millimolar. […] Drug diffusion samples were analysed by first obtaining a bilayer spectra while sample is immersed in PBS. Once obtained, known concentrations of drug were added to the PBS in the case of Fluorescence in an open chamber of 2 mL volume containing the bilayer modified substrate spectra or in the case of Raman spectra in a closed microfluidic structure. […]

Structure (SMILES)	change of emission spectrum whilst in the bilayer	change of emission spectrum whilst in the bilayer (listed as doxorubicin)
COc1cccc2c1C(=O)c1c(O)c3c(c(O)c1C2=O)C[C@@](O)(C(=O)CO)C[C@@H]3O[C@H]1C[C@H](N)[C@H](O)[C@H](C)O1 [Doxorubicin]	transitory shift to the red	transitory shifts in emission peak maximum and relative intensity of the vibrational progression
COc1cccc2c1C(=O)c1c(O)c3c(c(O)c1C2=O)C[C@@](O)(C(C)=O)C[C@@H]3O[C@H]1C[C@H](N)[C@H](O)[C@H](C)O1 [Duanorubicin]	transitory shifts in emission peak maximum and relative intensity of the vibrational progression	–
